From the supplement of paper PMC3334620
Whole data set: some 33,000 sequences, median “E-score (-0.5 to 0.5)” near -0.0014, cut for the highest 2% near 0.25. This is one part of the list.

These sequences were tested against T1, Cad1 (UniProt P24813) (assay: PBM E-score (8-mer binding enrichment) (E-score (-0.5 to 0.5)); higher = stronger / more preferred TF binding). Details: protein concentration: 100 nM; construct: GST-full length.
T1 sequence: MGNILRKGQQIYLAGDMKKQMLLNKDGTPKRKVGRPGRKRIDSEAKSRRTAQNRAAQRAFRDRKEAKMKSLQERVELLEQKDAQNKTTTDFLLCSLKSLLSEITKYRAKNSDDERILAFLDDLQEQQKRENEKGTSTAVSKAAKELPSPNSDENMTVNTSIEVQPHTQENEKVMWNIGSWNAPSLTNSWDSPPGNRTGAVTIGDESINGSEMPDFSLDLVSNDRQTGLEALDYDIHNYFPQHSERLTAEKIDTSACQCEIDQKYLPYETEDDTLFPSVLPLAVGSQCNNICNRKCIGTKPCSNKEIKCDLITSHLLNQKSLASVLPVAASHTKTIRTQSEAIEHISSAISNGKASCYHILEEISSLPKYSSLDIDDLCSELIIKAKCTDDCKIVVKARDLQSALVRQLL
Procedure, shortened: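 GST-tagged yeast TFs (full-length or DNA-binding domain) were made by PURExpress in vitro transcription/translation and applied at about 100-200 nM to universal all-10-mer Agilent arrays. The arrays were made double-stranded by primer extension, on fresh or once-stripped slides. Bound protein was detected with fluorescent anti-GST, and scans were normalised with masliner. Each ungapped eight-base word, pooled with its reverse complement, received an E-score (modified Wilcoxon-Mann-Whitney statistic) from the Universal PBM Analysis Suite.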

Sequence | PBM E-score
TAAATTAA | 0.131
ACGACAAC | 0.187
ATGTGAAC | 0.0102
AGCGCTTA | 0.336
ATATTAAT | 0.368
ATCTAGCA | 0.0899
GGCGCTTA | -0.0696
ATTGCACC | -0.0984
CCTTGATA | 0.12
AAGTCAAA | -0.0173
TGAGGACA | 0.123
AAGCACGG | 0.0126
GCTCGCAC | 0.141
CCTACAGC | 0.0508
CGGCCGGA | -0.0342
TCTAACCA | 0.0533
CCGCTTAG | -0.00568
CCCACAGG | -0.311
AAACATTA | 0.0245
AACGGCAC | -0.0786
CTCCGAAG | -0.0402
CAGAAATA | 0.12

Sequence | PBM E-score
CTACAGAA | 0.0272
ATCATCGC | 0.0216
CCTTTGTC | 0.0499
GAGCTCGA | 0.16
ATGCCCTC | -0.0803
TAGGCACA | -0.0581
GTGATTTA | 0.153
TCCGGGAA | 0.166
CAGAGATC | -0.0207
CCCTTGTA | -0.211
GCATGCCC | 0.109
AAAAGGAG | -0.234
GGGTTGAC | -0.148
AGACGACG | -0.0598
ATCCAGTA | -0.0384
AATTTTTG | 0.082
AATCGTGG | 0.163
CCCTCACG | -0.0732
GCCCATCA | -0.129
AGACCTTC | -0.149
CATCTTCA | -0.249
CAGAGATG | -0.0243

Sequence | PBM E-score
CCTGACTC | -0.139
CCCAAGAC | 0.0763
CTCTCGCA | -0.272
AACTGAAA | 0.149
GCGATCCC | -0.162
GCGCCCGC | -0.125
TCAATTGA | 0.0289
CATCGGTC | -0.0321
CCAGCGCG | -0.015
GCAAGAAC | 0.0479
CTTGTCGC | -0.136
TATCGAAA | 0.155
TACGCATA | 0.136
AACTAAAG | 0.2
AGGGAACA | -0.021
ACTGAGAT | 0.0263
ATCAAGGG | 0.0452
AAATATGG | -0.00169
CTTGGGCC | -0.279
CGAGCACC | -0.163
ACGACGAT | -0.0571
CAGGATTA | 0.192

Copied from the listing for reference:
Sequence | PBM E-score
CCTGACTC | -0.139
CCCAAGAC | 0.0763
CTCTCGCA | -0.272

Additional entries follow:

Sequence | PBM E-score
GTATCAAC | -0.0681
ACTGGCAA | -0.0398
ACCGTAAA | 0.0475
AAATGTGG | 0.0872
GCGCAAAA | 0.241
AAACGTAT | 0.134
GGACCCCC | -0.361
GAGCGCGC | 0.186
AAGTTCAT | 0.0937
CACGTTGC | -0.135
AGGGAGTA | -0.0843
AGGCGGCC | -0.121
AGGTCGAC | 0.156
ACTTGCAC | 0.0617
AGACCACC | -0.0828
TATACGAA | 0.173
GGCCAACC | -0.0465
AATTCCAC | 0.111
ACACTCCT | -0.137
AATGATAA | 0.202
